Source: patent US20190328891A1 (CONTIPRO A.S., priority 2016, published 2019)

Tests used:
[1] = general procedure: peptide synthesis; carrier based on hyaluronan in the form of fibres, thin films, or nonwoven fabrics; settings: whole synthesis
peptide synthesis = settings: whole synthesis

H-(Val-Pro-Gly-Leu-Gly)2-O-HYA
purity (crude or final not stated) [1]: 85%

Ac-Arg-Gly-Asp-Ahx-Ahx-Nle-O-HYA
purity (crude or final not stated) [1]: 95%

H-Gly-Gly-Gly-Arg-Gly-Asp-Nle-O-HYA (GGGRGD; H-, Nle-O-hyaluronan conjugate; printed: Gly-Gly-Gly-Arg-Gly-Asp-)
purity (crude or final not stated) (peptide synthesis; T7 r7): 85%
purity (crude or final not stated) (peptide synthesis; T8 r6): 76%

Ac-Arg-Gly-Asp-Gly-Gly-Gly-Nle-O-HYA
purity (crude or final not stated) [1]: 90%

H-Ahx-Ahx-Arg-Gly-Asp-Nle-O-HYA
purity (crude or final not stated) (peptide synthesis): 89%

Ac-Ahx-Ahx-Arg-Gly-Asp-Nle-O-HYA
purity (crude or final not stated) [1]: 86%

H-(Ala)7-Lys(Boc)-Nle-O-HYA
purity (crude or final not stated) [1]: 86%

H-Arg-Gly-Asp-Gly-Gly-Gly-Nle-O-HYA (RGDGGG; H-, Nle-O-hyaluronan conjugate; printed: Arg-Gly-Asp-Gly-Gly-Gly-)
purity (crude or final not stated) (peptide synthesis; T7 r6): 82%
purity (crude or final not stated) (peptide synthesis; T8 r5): 85%
